Structures can show the parent of a compound that is named as a salt. Some of the results follow. The calls rarely recur for the same compound in another form.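 In K562 cells expressing nanoluciferase-fused kinases, luminescence was recorded at 4 h intervals between 2 and 18 h, normalized as percent of control with DMSO at 100% and a positive control at 0%. A significant (2 sigma) signal drop marks a time point as decreased. The authors' rule for a hit is not shown and takes in more than the number of time points.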
Experiments:
Experiment in all cases: kinase-Nluc reporter destabilization hit call (1 = scored as downregulated) (binary); higher = compound decreases kinase abundance
Details in all cases: K562; 2-18 h
PDPK1 = PDPK1 (UniProt O15530)
PIK4CA = PIK4CA (UniProt P42356)
PIK4CB = PIK4CB (UniProt Q9UBF8)
PLK1 = PLK1 (UniProt P53350)
PRKAA1 = PRKAA1 (UniProt Q13131)
PRKCA = PRKCA (UniProt P17252)
PTK2 = PTK2 (UniProt Q05397)
PTK2B = PTK2B (UniProt Q14289)
RAF1 = RAF1 (UniProt P04049)
[1] = target: RAF1_S257L (clone: RAF1_mut) (UniProt P04049)

By UniProt entry, the sequences of proteins in these tests, tags left out. Where a name states a change or a piece, a line headed by the entry shows the natural chain unless it says otherwise.
UniProt P42356, whole entry, looked up: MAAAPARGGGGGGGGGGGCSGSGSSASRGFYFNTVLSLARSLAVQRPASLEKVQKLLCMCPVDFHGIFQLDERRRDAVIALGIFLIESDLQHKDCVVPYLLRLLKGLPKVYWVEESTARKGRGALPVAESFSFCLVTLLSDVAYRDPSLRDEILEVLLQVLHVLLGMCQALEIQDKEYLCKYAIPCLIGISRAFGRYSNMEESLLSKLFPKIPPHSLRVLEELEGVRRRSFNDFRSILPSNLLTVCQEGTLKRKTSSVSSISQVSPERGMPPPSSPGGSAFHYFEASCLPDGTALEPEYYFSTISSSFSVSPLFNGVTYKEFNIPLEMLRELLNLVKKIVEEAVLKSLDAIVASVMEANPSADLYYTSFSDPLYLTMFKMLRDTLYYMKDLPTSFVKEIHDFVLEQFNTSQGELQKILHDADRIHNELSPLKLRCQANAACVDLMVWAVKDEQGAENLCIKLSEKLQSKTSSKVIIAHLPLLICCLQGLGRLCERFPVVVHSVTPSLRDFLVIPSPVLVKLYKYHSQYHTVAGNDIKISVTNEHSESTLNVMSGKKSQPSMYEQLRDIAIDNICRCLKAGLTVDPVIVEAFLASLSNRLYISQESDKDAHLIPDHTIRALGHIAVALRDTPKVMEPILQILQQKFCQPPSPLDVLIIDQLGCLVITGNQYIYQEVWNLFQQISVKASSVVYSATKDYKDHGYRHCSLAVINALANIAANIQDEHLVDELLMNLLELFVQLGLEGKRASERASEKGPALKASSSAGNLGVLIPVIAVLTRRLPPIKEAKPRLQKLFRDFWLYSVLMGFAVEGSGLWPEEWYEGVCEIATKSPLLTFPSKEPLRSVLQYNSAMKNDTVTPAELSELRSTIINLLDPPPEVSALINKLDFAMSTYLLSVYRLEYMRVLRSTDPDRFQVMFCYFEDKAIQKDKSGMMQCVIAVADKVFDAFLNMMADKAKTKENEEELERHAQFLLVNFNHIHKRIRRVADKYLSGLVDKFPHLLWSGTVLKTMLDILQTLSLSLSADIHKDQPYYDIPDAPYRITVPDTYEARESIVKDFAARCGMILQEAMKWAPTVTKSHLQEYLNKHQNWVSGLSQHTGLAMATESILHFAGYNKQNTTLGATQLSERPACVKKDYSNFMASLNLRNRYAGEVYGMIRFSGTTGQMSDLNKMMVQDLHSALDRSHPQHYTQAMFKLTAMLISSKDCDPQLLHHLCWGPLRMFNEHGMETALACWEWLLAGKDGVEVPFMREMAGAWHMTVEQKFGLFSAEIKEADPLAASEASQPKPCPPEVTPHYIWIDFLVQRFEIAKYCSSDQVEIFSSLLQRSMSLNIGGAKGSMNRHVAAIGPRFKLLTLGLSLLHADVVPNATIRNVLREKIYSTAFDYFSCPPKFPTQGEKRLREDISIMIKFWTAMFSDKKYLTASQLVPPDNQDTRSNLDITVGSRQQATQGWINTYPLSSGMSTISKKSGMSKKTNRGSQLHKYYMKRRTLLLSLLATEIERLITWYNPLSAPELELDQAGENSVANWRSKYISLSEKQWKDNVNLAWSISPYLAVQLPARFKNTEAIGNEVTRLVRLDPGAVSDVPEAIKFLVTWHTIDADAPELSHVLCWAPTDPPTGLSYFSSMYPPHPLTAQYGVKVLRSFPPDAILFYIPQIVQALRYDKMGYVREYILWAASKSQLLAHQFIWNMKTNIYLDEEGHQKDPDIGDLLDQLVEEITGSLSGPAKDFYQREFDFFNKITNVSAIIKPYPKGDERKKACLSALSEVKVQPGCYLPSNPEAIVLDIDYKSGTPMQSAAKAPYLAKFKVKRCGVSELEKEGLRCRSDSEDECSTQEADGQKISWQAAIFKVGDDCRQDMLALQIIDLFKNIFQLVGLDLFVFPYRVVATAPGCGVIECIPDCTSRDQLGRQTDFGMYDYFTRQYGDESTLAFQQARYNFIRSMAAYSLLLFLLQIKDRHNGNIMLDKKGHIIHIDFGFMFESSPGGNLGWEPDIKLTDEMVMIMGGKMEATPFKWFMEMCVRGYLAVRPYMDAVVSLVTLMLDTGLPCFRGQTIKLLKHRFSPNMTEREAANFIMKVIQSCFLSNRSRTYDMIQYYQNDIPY
UniProt Q9UBF8: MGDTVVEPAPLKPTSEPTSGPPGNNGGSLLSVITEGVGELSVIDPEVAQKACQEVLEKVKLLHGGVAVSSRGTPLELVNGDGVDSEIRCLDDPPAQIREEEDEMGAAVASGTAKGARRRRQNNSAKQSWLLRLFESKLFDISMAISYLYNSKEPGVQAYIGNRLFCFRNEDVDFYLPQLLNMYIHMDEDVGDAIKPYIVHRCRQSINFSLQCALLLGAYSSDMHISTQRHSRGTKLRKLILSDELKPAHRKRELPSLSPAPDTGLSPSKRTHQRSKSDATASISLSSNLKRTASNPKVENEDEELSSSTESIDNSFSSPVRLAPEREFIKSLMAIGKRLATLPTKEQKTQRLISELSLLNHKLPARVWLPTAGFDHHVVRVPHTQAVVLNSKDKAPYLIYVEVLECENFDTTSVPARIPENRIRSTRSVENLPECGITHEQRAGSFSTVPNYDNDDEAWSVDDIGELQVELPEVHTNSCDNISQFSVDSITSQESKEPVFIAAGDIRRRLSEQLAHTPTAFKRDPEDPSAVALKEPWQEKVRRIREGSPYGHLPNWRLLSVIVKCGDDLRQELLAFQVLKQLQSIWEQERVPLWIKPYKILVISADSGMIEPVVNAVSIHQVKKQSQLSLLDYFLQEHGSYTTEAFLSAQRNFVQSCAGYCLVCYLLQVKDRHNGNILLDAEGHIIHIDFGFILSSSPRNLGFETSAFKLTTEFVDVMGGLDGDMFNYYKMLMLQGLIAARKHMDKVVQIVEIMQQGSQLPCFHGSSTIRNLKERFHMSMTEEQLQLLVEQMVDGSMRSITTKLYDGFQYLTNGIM
UniProt P53350, whole entry: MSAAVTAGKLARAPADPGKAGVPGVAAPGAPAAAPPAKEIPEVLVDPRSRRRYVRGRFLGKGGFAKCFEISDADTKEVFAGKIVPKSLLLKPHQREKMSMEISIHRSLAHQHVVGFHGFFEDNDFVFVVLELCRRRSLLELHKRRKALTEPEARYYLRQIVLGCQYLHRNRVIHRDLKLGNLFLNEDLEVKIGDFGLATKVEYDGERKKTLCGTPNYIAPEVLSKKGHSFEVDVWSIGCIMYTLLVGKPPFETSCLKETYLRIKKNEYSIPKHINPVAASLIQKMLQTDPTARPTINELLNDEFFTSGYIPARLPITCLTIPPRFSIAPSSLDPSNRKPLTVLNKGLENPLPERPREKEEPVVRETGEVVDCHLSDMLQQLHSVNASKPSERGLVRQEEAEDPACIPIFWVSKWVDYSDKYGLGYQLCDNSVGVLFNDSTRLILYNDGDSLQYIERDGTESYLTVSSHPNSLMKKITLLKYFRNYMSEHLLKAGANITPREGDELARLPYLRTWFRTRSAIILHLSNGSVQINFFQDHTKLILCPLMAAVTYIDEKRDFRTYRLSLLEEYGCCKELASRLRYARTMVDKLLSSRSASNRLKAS
UniProt Q05397, whole entry, looked up: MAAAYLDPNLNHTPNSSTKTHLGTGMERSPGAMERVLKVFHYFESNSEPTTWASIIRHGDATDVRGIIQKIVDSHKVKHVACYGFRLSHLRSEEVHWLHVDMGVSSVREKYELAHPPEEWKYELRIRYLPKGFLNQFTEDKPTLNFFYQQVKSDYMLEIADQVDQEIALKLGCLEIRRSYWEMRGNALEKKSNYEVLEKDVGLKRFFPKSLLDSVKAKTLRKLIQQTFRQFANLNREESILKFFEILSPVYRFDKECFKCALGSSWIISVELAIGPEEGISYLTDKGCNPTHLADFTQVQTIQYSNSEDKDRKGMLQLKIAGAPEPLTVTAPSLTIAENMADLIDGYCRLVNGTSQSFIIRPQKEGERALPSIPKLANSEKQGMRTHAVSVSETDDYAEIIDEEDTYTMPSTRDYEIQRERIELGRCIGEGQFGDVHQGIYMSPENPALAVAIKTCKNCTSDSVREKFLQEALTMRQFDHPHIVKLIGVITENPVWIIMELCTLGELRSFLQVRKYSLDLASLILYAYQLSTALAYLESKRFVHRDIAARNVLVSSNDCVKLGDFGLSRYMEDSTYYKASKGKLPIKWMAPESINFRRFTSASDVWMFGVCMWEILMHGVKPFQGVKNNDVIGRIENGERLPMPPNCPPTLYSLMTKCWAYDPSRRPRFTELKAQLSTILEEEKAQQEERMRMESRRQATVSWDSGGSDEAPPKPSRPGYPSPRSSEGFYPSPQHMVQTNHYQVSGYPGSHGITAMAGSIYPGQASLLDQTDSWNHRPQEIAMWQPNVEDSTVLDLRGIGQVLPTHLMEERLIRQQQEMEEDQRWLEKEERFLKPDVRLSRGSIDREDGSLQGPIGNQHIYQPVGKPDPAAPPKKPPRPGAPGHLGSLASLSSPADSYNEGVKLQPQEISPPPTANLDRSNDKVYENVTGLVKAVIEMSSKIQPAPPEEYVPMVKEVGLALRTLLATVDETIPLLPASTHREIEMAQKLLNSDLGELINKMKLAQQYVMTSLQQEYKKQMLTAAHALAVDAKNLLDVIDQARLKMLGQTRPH
UniProt Q14289, whole entry, looked up: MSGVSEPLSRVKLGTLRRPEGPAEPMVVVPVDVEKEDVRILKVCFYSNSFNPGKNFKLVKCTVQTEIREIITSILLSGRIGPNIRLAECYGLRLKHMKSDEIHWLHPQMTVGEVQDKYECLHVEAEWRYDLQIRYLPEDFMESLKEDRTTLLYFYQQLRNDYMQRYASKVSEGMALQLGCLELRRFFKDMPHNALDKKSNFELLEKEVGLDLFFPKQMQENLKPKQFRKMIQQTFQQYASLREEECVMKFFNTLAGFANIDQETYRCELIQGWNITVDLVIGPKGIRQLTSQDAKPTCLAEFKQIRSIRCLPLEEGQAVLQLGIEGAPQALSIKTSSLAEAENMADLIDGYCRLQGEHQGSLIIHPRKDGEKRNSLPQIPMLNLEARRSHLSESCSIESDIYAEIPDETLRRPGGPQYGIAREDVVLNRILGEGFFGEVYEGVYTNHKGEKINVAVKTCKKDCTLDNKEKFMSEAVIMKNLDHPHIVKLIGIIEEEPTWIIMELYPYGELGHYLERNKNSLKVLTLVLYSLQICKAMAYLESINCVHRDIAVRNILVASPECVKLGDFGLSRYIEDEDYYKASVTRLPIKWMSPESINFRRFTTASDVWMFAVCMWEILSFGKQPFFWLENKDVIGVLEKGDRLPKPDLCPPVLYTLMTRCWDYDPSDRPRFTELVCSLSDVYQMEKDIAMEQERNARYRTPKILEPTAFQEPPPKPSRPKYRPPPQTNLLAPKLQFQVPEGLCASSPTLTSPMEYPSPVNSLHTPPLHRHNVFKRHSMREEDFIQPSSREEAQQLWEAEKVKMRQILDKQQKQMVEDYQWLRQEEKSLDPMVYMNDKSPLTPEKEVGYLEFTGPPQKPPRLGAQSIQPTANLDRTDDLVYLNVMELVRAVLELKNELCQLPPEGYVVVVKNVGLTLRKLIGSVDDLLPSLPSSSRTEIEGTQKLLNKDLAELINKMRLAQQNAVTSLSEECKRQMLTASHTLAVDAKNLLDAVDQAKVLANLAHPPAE

Measured: kinase-Nluc reporter destabilization hit call

CC(=O)O[C@@H]1[C@@H](OC(C)=O)[C@@H](O)[C@H](Oc2c(-c3ccc(O)cc3)oc3cc(O)cc(O)c3c2=O)O[C@H]1C (10 µM)
inactive: PDPK1 = 0 | PIK4CA 0 | PIK4CB 0 | PLK1 = 0 | PRKAA1 = 0 | PRKCA 0 | PTK2 = 0 | PTK2B 0 | RAF1 = 0 | [1] 0

COc1cc2c(cc1OC)[C@@H]1C(=O)c3ccc4c(c3O[C@@H]1CO2)C=CC(C)(C)O4 [Deguelin] (10 µM)
inactive: PDPK1 = 0 | PIK4CA 0 | PIK4CB 0 | PLK1 = 0 | PRKAA1 = 0 | PRKCA 0 | PTK2 = 0 | PTK2B 0 | RAF1 = 0 | [1] 0

O=C(Nc1ccnc(NC(=O)C2CC2)c1)c1c(Cl)cccc1Cl (10 µM)
inactive: PDPK1 = 0 | PIK4CA 0 | PIK4CB 0 | PLK1 = 0 | PRKAA1 = 0 | PRKCA 0 | PTK2 = 0 | PTK2B 0 | RAF1 = 0 | [1] 0

COc1cc(N2CCC(N3CCN(C)CC3)CC2)ccc1Nc1ncnc(Nc2ccccc2S(=O)(=O)C(C)C)n1 (10 µM)
inactive: PDPK1 = 0 | PIK4CA 0 | PIK4CB 0 | PLK1 = 0 | PRKAA1 = 0 | PRKCA 0 | PTK2 = 0 | PTK2B 0 | RAF1 = 0 | [1] 0

N=C(NC(=N)N1CCCC1)Nc1ccc(OC(F)(F)F)cc1 (10 µM)
inactive: PDPK1 = 0 | PIK4CA 0 | PIK4CB 0 | PLK1 = 0 | PRKAA1 = 0 | PRKCA 0 | PTK2 = 0 | PTK2B 0 | RAF1 = 0 | [1] 0

CC/C(=C(\c1ccccc1)c1ccc(OCCNC)cc1)c1ccccc1 [N-Desmethyltamoxifen (hydrochloride)] (2.5 µM)
inactive: PDPK1 = 0 | PIK4CA 0 | PIK4CB 0 | PLK1 = 0 | PRKAA1 = 0 | PRKCA 0 | PTK2 = 0 | PTK2B 0 | RAF1 = 0 | [1] 0

N#CC(=C(/N)Sc1ccccc1N)/C(C#N)=C(\N)Sc1ccccc1N (10 µM)
inactive: PDPK1 = 0 | PIK4CA 0 | PIK4CB 0 | PLK1 = 0 | PRKAA1 = 0 | PRKCA 0 | PTK2 = 0 | PTK2B 0 | RAF1 = 0 | [1] 0

COc1c(O)cc(O)c2c(=O)cc(-c3ccccc3)oc12 [Wogonin] (10 µM)
inactive: PDPK1 = 0 | PIK4CA 0 | PIK4CB 0 | PLK1 = 0 | PRKAA1 = 0 | PRKCA 0 | PTK2 = 0 | PTK2B 0 | RAF1 = 0 | [1] 0

CCOc1cc(N2CCC(O)CC2)ccc1Nc1ncc2c(n1)N(C1CCCC1)CCC(=O)N2C (2.5 µM)
inactive: PDPK1 = 0 | PIK4CA 0 | PIK4CB 0 | PLK1 = 0 | PRKAA1 = 0 | PRKCA 0 | PTK2 = 0 | PTK2B 0 | RAF1 = 0 | [1] 0

Cc1cccc(CC(=O)N2CCc3c2ccc(-c2cn(C)c4ncnc(N)c24)c3F)n1 (10 µM)
inactive: PDPK1 = 0 | PIK4CA 0 | PIK4CB 0 | PLK1 = 0 | PRKAA1 = 0 | PRKCA 0 | PTK2 = 0 | PTK2B 0 | RAF1 = 0 | [1] 0

COc1cc2nc(-c3cc(F)ccc3O)nc(N[C@@H]3CNC[C@H]3C(C)(C)O)c2cc1OC (2.5 µM)
inactive: PDPK1 = 0 | PIK4CA 0 | PIK4CB 0 | PLK1 = 0 | PRKAA1 = 0 | PRKCA 0 | PTK2 = 0 | PTK2B 0 | RAF1 = 0 | [1] 0

Nc1[nH]nc2nnc(-c3c(-c4ccccc4)nn4ccccc34)cc12 (10 µM)
inactive: PDPK1 = 0 | PIK4CA 0 | PIK4CB 0 | PLK1 = 0 | PRKAA1 = 0 | PRKCA 0 | PTK2 = 0 | PTK2B 0 | RAF1 = 0 | [1] 0

Nc1ccc(-c2cccc(C(=O)Nc3cnc4nc(N5CCOCC5)oc4c3)n2)cn1 (10 µM)
inactive: PDPK1 = 0 | PIK4CA 0 | PIK4CB 0 | PLK1 = 0 | PRKAA1 = 0 | PRKCA 0 | PTK2 = 0 | PTK2B 0 | RAF1 = 0 | [1] 0

CC(C1CC1)n1cnc2c(NCc3cccc(C(F)(F)F)c3)nc(NCCN(C)C)nc21 (stereo not given) (10 µM)
inactive: PDPK1 = 0 | PIK4CA 0 | PIK4CB 0 | PLK1 = 0 | PRKAA1 = 0 | PRKCA 0 | PTK2 = 0 | PTK2B 0 | RAF1 = 0 | [1] 0

NCCNS(=O)(=O)c1ccc(Cl)c2ccncc12 [CKI-7 (free base)] (10 µM)
inactive: PDPK1 = 0 | PIK4CA 0 | PIK4CB 0 | PLK1 = 0 | PRKAA1 = 0 | PRKCA 0 | PTK2 = 0 | PTK2B 0 | RAF1 = 0 | [1] 0

CC1=C(C#N)C(c2ccc3[nH]nc(C)c3c2)C(C#N)=C(C)N1 (10 µM)
inactive: PDPK1 = 0 | PIK4CA 0 | PIK4CB 0 | PLK1 = 0 | PRKAA1 = 0 | PRKCA 0 | PTK2 = 0 | PTK2B 0 | RAF1 = 0 | [1] 0

Cc1ncc(-c2cc(F)c(O)c(F)c2)cc1-c1cc(F)c(O)c(F)c1 (10 µM)
inactive: PDPK1 = 0 | PIK4CA 0 | PIK4CB 0 | PLK1 = 0 | PRKAA1 = 0 | PRKCA 0 | PTK2 = 0 | PTK2B 0 | RAF1 = 0 | [1] 0

CN1C(=O)[C@@H](NC(=O)c2cc(Cc3ccccc3)on2)COc2ccccc21 (10 µM)
inactive: PDPK1 = 0 | PIK4CA 0 | PIK4CB 0 | PLK1 = 0 | PRKAA1 = 0 | PRKCA 0 | PTK2 = 0 | PTK2B 0 | RAF1 = 0 | [1] 0

CC(C)(C)S(=O)(=O)c1cc2c(Nc3ccc4scnc4c3)ncnc2cc1OCCOP(=O)(O)O (2 µM)
inactive: PDPK1 = 0 | PIK4CA 0 | PIK4CB 0 | PLK1 = 0 | PRKAA1 = 0 | PRKCA 0 | PTK2 = 0 | PTK2B 0 | RAF1 = 0 | [1] 0

O=C1OC(COc2ccccc2[N+](=O)[O-])CC1Cc1ccccc1 (stereo not given) (10 µM)
inactive: PDPK1 = 0 | PIK4CA 0 | PIK4CB 0 | PLK1 = 0 | PRKAA1 = 0 | PRKCA 0 | PTK2 = 0 | PTK2B 0 | RAF1 = 0 | [1] 0

Cn1cc(-c2nc(N[C@@H]3CCCC[C@@H]3N)c(F)c3c2C(=O)NC3)cn1 [TAK-659 (hydrochloride)] (2 µM)
inactive: PDPK1 = 0 | PIK4CA 0 | PIK4CB 0 | PLK1 = 0 | PRKAA1 = 0 | PRKCA 0 | PTK2 = 0 | PTK2B 0 | RAF1 = 0 | [1] 0

Nc1ccc(O)c(C(=O)O)c1 [5-Aminosalicylic Acid] (10 µM)
inactive: PDPK1 = 0 | PIK4CA 0 | PIK4CB 0 | PLK1 = 0 | PRKAA1 = 0 | PRKCA 0 | PTK2 = 0 | PTK2B 0 | RAF1 = 0 | [1] 0

O=c1c(O)c(-c2ccc(O)c(O)c2)oc2cc(O)c(O)c(O)c12 [Quercetagetin] (10 µM)
inactive: PDPK1 = 0 | PIK4CA 0 | PIK4CB 0 | PLK1 = 0 | PRKAA1 = 0 | PRKCA 0 | PTK2 = 0 | PTK2B 0 | RAF1 = 0 | [1] 0

COc1c(Nc2ncc(Cl)c(N[C@H]3[C@@H](C(N)=O)[C@@H]4C=C[C@H]3C4)n2)ccc2c1CC[C@@H](N1CCOCC1)CC2 (10 µM)
inactive: PDPK1 = 0 | PIK4CA 0 | PIK4CB 0 | PLK1 = 0 | PRKAA1 = 0 | PRKCA 0 | PTK2 = 0 | PTK2B 0 | RAF1 = 0 | [1] 0

Nc1nc(Nc2ccc3c(c2)CC[C@@H](N2CCCC2)CC3)nn1-c1cc2c(nn1)-c1ccccc1CCC2 [Bemcentinib] (2.5 µM)
inactive: PDPK1 = 0 | PIK4CA 0 | PIK4CB 0 | PLK1 = 0 | PRKAA1 = 0 | PRKCA 0 | PTK2 = 0 | PTK2B 0 | RAF1 = 0 | [1] 0

COCCOc1cnc2ccn([C@H](C)c3nnc4c(F)cc(-c5cnn(C)c5)cn34)c(=O)c2c1 (10 µM)
inactive: PDPK1 = 0 | PIK4CA 0 | PIK4CB 0 | PLK1 = 0 | PRKAA1 = 0 | PRKCA 0 | PTK2 = 0 | PTK2B 0 | RAF1 = 0 | [1] 0

Cc1ccc(Nc2cc(N[C@@H]3CCCC[C@@H]3N)nnc2C(N)=O)nc1C (2 µM)
inactive: PDPK1 = 0 | PIK4CA 0 | PIK4CB 0 | PLK1 = 0 | PRKAA1 = 0 | PRKCA 0 | PTK2 = 0 | PTK2B 0 | RAF1 = 0 | [1] 0

CN(C)c1ccc(/C=C2\C(=O)Nc3ccccc32)c2ccccc12 (10 µM)
inactive: PDPK1 = 0 | PIK4CA 0 | PIK4CB 0 | PLK1 = 0 | PRKAA1 = 0 | PRKCA 0 | PTK2 = 0 | PTK2B 0 | RAF1 = 0 | [1] 0

Nc1ccc(C(=O)Nc2cccc(-c3nc(N4CCOCC4)c4oc5ncccc5c4n3)c2)cn1 (10 µM)
inactive: PDPK1 = 0 | PIK4CA 0 | PIK4CB 0 | PLK1 = 0 | PRKAA1 = 0 | PRKCA 0 | PTK2 = 0 | PTK2B 0 | RAF1 = 0 | [1] 0
